Results deposited as PubChem BioAssay AID743456 (Peter MacCallum Cancer Centre, 2014)

Aim: 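Mimic library tested for viability and apoptosis changes under vorinostat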 (primary screen)
Cell system: human HCT116-VR colon cancer cells, a vorinostat-resistant HCT116 line
Reagent: miRNA mimic
Time to read-out: about 3 days from transfection to readout; drug present for the last 24 h
Conditions: vorinostat at 2.5 µM final for 24 h
Measurement: 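Per-well live-cell protease fluorescence and caspase luminescence under 2.5 µM vorinostat for 24 h, scored as robust z-scores and against mock transfection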
Reading the numbers: viability robust z-score: higher = more viable cells; caspase robust z-score: higher = more caspase activity, more apoptosis
Hit rule: 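Active when viability drops or caspase activity climbs beyond robust z thresholds, with wells of poor cell health excluded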
This is one part, drawn at random, of 878 reagents. 27 of all reagents (3.1%) were called active. 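27 mimics are marked active, unlike an earlier stated count of 24; the viability threshold is described inconsistently.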 Further read-outs or replicates are left out here. The record does not give: the amount of reagent.

miRNA,viability robust z-score,caspase robust z-score,viability hit class,caspase hit class,call
hsa-miR-126*,0.96,-0.57,no change,no change,inactive
hsa-miR-555,-1.95,3.68,no change,no change,inactive
hsa-miR-151-3p,0.1,-0.24,no change,no change,inactive
hsa-miR-130b*,-1.99,0.01,no change,no change,inactive
hsa-miR-187,1.04,0.82,no change,no change,inactive
hsa-miR-181a-2*,-0.26,0.16,no change,no change,inactive
hsa-miR-891a,0.92,0.12,no change,no change,inactive
hsa-miR-513a-5p,-0.54,0.17,no change,no change,inactive
hsa-miR-217,-0.75,5.56,no change,caspase activation,active
hsa-miR-410,0.79,-0.76,no change,no change,inactive
hsa-miR-449b*,-0.22,2.18,no change,no change,inactive
hsa-miR-518c*,-0.56,0.32,no change,no change,inactive
hsa-miR-1978,0.55,-0.34,no change,no change,inactive
hsa-miR-675*,-0.44,-0.72,no change,no change,inactive
hsa-miR-1197,1.29,-0.26,no change,no change,inactive
hsa-miR-635,-0.08,1.16,no change,no change,inactive
hsa-miR-193a-3p,-2.88,4.29,no change,no change,inactive
hsa-miR-1301,1.18,1.6,no change,no change,inactive
hsa-miR-519a,-0.05,2.04,no change,no change,inactive
hsa-miR-411*,0.43,-0.74,no change,no change,inactive
hsa-miR-637,-2.12,0.63,no change,no change,inactive
hsa-miR-1179,0.68,-0.45,no change,no change,inactive
hsa-miR-205,-0.82,-0.45,no change,no change,inactive
hsa-miR-509-5p,-0.62,3.21,no change,no change,inactive
hsa-miR-375,0.08,0.97,no change,no change,inactive
hsa-miR-1908,-0.64,-0.36,no change,no change,inactive
hsa-miR-1226,-0.7,1.6,no change,no change,inactive
hsa-miR-943,0.43,-0.3,no change,no change,inactive
hsa-miR-93,0.52,-0.06,no change,no change,inactive
hsa-miR-150,0.6,-0.9,no change,no change,inactive
hsa-miR-320a,0.64,1.57,no change,no change,inactive
hsa-miR-570,1.03,0.88,no change,no change,inactive
hsa-miR-924,-0.52,-0.97,no change,no change,inactive
hsa-miR-363*,-2.96,3.75,reduced viability,no change,active
hsa-miR-520g,0.56,0.8,no change,no change,inactive
hsa-miR-1248,0.12,0.26,no change,no change,inactive
hsa-miR-451,0.42,-0.86,no change,no change,inactive
hsa-miR-188-5p,1.08,-0.16,no change,no change,inactive
hsa-miR-767-3p,0.78,0.44,no change,no change,inactive
hsa-miR-567,-1.18,-1.12,no change,no change,inactive
hsa-miR-564,-0.96,-0.7,no change,no change,inactive
hsa-miR-942,-0.06,-1.04,no change,no change,inactive
hsa-miR-1254,-1.51,4.29,no change,no change,inactive
hsa-miR-196b,-0.43,-0.2,no change,no change,inactive
hsa-miR-1972,-0.2,2.67,no change,no change,inactive
hsa-miR-582-5p,-1.07,-0.26,no change,no change,inactive
hsa-miR-27a*,-1.73,0.86,no change,no change,inactive
hsa-miR-425*,-0.9,3.19,no change,no change,inactive
hsa-miR-490-3p,1.06,-0.06,no change,no change,inactive
hsa-miR-17,-0.34,0.16,no change,no change,inactive

An excerpt from above, reduced to “caspase robust z-score”:
hsa-miR-518c*: 0.32
hsa-miR-1978: -0.34
